# Measured values as given in the supplement of paper PMC6411743.
# Protein sequences, listed by entry. Tags and fused reporters are not part of them. Lines headed by an entry give the natural chain unless they say otherwise; changes in a name come on top.
# UniProt Q9BV68: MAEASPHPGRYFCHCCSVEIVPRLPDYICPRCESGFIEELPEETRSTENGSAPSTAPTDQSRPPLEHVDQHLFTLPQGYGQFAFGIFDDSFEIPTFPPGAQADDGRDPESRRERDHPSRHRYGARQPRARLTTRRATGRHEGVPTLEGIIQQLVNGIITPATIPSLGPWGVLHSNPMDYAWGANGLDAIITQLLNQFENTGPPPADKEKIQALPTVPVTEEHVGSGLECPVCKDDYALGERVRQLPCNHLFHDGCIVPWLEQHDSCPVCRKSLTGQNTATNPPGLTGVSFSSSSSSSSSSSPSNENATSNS
# UniProt Q14119: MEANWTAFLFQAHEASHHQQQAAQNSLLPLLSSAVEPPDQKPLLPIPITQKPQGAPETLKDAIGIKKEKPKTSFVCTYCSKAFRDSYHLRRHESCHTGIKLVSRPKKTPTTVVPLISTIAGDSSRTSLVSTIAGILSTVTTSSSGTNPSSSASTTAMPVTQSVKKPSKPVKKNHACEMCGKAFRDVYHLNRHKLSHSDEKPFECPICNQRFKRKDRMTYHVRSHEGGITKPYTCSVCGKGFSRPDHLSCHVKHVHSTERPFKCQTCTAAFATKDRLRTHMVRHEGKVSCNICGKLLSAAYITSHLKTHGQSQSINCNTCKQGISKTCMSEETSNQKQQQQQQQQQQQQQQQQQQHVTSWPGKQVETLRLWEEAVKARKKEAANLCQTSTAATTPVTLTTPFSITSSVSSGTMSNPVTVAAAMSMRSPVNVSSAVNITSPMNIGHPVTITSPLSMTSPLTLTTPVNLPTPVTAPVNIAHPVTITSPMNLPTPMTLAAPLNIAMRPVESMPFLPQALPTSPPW
# UniProt Q9UHR5: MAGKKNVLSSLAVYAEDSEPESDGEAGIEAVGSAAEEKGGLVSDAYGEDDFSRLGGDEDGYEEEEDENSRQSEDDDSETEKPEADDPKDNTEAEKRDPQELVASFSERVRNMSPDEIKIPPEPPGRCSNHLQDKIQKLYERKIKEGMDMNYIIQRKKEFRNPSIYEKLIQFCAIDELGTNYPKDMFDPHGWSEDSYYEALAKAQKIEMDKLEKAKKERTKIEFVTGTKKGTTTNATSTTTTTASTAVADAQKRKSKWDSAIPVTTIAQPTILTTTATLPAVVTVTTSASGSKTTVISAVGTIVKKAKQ
# UniProt Q00059: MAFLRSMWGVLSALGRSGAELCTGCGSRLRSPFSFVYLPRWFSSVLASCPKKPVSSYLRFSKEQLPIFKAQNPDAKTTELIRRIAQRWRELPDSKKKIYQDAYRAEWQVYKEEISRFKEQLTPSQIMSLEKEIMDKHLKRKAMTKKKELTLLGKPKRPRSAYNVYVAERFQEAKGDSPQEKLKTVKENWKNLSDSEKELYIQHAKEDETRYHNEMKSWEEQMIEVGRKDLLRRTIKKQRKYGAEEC
# UniProt P49815: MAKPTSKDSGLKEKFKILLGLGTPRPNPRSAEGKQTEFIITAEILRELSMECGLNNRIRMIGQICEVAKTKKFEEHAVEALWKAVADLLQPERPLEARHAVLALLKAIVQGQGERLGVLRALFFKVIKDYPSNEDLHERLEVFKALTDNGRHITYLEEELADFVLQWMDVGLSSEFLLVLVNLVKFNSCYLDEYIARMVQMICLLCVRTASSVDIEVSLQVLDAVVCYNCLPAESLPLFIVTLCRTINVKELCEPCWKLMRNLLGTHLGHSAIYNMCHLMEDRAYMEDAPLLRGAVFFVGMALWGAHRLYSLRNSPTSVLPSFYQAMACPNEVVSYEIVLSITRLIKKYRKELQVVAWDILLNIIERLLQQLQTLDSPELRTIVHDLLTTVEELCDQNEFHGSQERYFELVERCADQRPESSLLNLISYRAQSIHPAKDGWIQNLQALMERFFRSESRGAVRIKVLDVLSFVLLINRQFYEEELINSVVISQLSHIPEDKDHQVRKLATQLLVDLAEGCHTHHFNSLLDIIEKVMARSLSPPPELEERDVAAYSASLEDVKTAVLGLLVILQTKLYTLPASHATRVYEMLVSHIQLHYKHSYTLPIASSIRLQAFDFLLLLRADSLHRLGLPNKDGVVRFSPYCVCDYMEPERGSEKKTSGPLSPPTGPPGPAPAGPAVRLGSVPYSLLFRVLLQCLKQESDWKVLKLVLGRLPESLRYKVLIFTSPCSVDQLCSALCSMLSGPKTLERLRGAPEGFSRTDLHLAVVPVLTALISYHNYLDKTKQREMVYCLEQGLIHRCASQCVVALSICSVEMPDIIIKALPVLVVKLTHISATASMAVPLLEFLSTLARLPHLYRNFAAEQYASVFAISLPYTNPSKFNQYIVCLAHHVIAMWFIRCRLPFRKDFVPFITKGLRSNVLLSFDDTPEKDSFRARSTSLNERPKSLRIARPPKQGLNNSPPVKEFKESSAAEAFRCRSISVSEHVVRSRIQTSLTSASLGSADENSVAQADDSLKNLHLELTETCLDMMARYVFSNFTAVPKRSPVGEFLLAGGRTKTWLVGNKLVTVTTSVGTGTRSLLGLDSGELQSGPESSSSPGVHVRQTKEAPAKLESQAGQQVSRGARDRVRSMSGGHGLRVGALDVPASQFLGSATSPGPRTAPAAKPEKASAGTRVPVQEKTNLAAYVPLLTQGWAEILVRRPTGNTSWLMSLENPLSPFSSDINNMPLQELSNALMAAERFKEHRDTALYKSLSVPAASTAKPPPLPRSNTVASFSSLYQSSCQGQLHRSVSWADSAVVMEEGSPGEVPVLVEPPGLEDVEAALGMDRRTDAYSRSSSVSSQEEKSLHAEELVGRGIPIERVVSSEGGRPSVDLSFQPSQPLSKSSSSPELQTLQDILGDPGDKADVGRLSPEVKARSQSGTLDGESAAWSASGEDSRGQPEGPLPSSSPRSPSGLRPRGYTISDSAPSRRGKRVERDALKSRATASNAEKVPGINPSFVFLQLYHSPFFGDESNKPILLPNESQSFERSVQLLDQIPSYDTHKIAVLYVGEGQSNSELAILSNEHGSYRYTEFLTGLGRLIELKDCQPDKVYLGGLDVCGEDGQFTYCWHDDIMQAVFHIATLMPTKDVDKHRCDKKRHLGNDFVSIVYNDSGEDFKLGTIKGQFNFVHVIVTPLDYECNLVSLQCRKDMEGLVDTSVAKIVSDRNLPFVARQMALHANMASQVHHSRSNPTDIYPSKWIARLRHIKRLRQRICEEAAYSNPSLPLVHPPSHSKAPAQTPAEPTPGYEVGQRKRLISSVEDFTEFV
# UniProt Q9BZV1: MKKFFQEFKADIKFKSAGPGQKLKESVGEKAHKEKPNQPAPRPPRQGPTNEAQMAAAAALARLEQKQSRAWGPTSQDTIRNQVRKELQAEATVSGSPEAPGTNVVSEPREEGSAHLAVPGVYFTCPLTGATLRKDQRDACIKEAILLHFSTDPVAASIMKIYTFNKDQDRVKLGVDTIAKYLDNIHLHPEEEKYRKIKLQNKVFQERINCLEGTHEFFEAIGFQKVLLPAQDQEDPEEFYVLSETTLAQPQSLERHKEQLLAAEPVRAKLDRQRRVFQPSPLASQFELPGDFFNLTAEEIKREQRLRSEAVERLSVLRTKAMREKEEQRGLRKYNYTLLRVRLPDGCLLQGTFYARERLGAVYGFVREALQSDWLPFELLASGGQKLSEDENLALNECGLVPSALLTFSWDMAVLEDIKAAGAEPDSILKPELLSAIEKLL
# UniProt P17544: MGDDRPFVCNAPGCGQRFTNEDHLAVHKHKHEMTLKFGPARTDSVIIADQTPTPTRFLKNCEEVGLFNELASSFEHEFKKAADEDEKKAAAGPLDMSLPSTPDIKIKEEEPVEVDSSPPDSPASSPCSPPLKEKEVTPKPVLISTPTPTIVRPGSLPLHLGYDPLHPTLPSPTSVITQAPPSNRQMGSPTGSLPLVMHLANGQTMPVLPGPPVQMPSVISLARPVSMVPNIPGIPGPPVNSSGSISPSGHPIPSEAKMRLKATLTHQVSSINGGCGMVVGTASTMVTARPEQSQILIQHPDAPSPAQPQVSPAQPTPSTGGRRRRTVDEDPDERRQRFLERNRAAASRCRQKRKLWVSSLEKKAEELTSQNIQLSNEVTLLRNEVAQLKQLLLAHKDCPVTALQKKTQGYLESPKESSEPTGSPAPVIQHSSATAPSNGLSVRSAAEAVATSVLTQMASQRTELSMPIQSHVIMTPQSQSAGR
# UniProt Q5SW79: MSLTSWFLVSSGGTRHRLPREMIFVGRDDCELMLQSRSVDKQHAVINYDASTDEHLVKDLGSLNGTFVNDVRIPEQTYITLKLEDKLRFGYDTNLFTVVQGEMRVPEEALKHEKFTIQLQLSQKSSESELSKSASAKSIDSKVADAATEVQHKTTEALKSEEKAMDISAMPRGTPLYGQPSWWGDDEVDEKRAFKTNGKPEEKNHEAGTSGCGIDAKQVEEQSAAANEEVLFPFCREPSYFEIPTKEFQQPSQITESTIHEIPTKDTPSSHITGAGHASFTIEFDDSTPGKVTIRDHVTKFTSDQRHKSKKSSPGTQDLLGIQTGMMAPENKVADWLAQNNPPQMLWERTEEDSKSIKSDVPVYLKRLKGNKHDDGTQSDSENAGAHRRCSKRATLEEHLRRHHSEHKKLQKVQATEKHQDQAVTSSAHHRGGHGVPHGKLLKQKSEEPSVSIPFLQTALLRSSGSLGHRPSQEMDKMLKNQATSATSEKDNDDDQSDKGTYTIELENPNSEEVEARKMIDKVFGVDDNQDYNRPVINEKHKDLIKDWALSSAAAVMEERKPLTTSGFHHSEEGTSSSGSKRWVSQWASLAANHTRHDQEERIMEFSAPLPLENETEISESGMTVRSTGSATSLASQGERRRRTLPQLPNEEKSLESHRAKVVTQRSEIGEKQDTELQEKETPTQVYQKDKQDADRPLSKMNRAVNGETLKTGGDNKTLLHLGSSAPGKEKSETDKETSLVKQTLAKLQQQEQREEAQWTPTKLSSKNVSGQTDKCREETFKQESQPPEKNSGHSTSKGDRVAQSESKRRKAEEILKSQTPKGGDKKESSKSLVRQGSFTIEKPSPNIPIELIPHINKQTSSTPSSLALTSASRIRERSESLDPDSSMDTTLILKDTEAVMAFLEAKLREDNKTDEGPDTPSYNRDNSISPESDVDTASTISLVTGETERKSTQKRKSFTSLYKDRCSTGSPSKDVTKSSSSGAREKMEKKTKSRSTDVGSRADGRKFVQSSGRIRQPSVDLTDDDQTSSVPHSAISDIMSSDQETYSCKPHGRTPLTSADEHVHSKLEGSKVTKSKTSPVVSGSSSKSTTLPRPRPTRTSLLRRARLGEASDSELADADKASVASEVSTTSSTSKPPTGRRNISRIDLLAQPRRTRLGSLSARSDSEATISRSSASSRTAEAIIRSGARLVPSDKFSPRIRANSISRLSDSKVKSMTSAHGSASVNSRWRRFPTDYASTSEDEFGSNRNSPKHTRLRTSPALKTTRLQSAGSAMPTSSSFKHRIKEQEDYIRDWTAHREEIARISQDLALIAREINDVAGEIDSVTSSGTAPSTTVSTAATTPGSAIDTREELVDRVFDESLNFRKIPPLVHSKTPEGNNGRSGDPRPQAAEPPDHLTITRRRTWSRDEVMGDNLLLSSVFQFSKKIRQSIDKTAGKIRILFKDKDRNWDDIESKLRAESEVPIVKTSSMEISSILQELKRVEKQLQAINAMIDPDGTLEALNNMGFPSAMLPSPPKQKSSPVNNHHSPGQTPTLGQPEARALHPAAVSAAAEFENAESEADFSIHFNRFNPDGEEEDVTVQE
# UniProt Q8NBT2: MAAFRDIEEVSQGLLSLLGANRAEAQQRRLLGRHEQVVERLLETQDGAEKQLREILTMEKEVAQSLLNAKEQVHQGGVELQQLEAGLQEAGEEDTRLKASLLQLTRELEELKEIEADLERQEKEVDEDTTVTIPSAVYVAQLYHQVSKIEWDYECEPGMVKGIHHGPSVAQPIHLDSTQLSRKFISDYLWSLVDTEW
# UniProt Q01664: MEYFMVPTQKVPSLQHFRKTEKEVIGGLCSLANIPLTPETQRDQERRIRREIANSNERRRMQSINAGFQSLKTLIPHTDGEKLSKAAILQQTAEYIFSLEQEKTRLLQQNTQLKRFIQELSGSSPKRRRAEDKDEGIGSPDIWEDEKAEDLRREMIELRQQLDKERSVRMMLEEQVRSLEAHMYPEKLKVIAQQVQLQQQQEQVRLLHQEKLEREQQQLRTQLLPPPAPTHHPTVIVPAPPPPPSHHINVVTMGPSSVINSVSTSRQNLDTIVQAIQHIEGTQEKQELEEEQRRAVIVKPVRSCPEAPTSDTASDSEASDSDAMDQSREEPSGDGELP
# UniProt Q9BQE5: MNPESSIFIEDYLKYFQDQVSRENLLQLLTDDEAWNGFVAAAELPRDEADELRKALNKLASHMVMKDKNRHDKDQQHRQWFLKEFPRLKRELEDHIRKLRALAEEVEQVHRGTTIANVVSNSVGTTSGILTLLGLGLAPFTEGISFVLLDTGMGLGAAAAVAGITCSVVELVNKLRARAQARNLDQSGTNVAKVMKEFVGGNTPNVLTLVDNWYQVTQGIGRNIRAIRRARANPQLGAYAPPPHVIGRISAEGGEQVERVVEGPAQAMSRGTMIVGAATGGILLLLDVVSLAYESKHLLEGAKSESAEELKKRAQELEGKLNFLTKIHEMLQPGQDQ
# ± gives the standard deviation of the averaged measurements. The list shows a part of the results.
# Compound: Nc1nc2c(ncn2[C@@H]2O[C@H](COP(=O)(O)OP(=O)(O)OP(=O)(O)O)[C@@H](O)[C@H]2O)c(=O)[nH]1 [guanosine triphosphate]
# Test: NP40-soluble protein abundance relative to vehicle (solubility fold change) (ratio); higher = more soluble protein in presence of GTP
# Outline: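 Values are fold changes against the detergent-processed vehicle, based on vsn-normalised intensities. Jurkat crude lysate was treated at eight concentrations from 0.1 to 10 mM (10 min at room temperature, then 3 min at 37 °C), solubilised with 0.8% NP40 and benzonase, ultracentrifuged and analysed by TMT-labelled LC-MS/MS over three independent experiments.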
Target,NP40-soluble protein abundance (concentration: 0.1mM),NP40-soluble protein abundance (concentration: 0.5mM),NP40-soluble protein abundance (concentration: 1mM),NP40-soluble protein abundance (concentration: 2mM),NP40-soluble protein abundance (concentration: 4mM),NP40-soluble protein abundance (concentration: 6mM),NP40-soluble protein abundance (concentration: 8mM),NP40-soluble protein abundance (concentration: 10mM)
H7C285 and related entries (UniProt O95858),0.991 ± 0.12,0.993 ± 0.027,0.948 ± 0.047,0.962 ± 0.11,0.972 ± 0.1,0.958 ± 0.1,0.972 ± 0.14,0.9589 ± 0.00067
K7EIY6 and related entries (UniProt Q9BV68),0.911 ± 0.078,0.974 ± 0.059,1 ± 0.085,0.978 ± 0.036,0.981 ± 0.033,0.996 ± 0.042,0.96 ± 0.12,1.01 ± 0.11
J3QSH4 and related entries (UniProt Q14119),1 ± 0.013,1.02 ± 0.069,1.02 ± 0.092,0.976 ± 0.14,0.93 ± 0.11,0.984 ± 0.14,1.01 ± 0.098,1.03 ± 0.13
J3QQJ0 and related entries (UniProt Q9UHR5),0.875 ± 0.07,0.884 ± 0.087,0.925 ± 0.075,0.89 ± 0.084,0.858 ± 0.066,0.878 ± 0.047,0.844 ± 0.048,0.895 ± 0.064
H3BS58 and related entries (UniProt Q9BSU1),1.06 ± 0.078,1.01 ± 0.041,0.972 ± 0.025,1.02 ± 0.043,1.04 ± 0.035,0.971 ± 0.037,0.976 ± 0.023,0.876 ± 0.011
J3QQJ5 and related entries (UniProt Q9Y2L5),1.09 ± 0.062,1.1 ± 0.12,1.05 ± 0.091,1.03 ± 0.11,1 ± 0.14,0.989 ± 0.13,1.01 ± 0.12,0.981 ± 0.13
G5E9W3 and related entries (UniProt Q9UKF6),1.01 ± 0.029,1.03 ± 0.033,0.999 ± 0.042,1.03 ± 0.012,1.05 ± 0.065,1.08 ± 0.062,1.03 ± 0.023,1.03 ± 0.019
H3BUF6 and related entries (UniProt Q8WWM7),0.945 ± 0.054,0.952 ± 0.075,0.974 ± 0.067,0.954 ± 0.099,0.963 ± 0.07,0.975 ± 0.077,1.02 ± 0.052,1.04 ± 0.066
H7BYN3 and related entries (UniProt Q00059),0.96 ± 0.06,0.936 ± 0.087,1.11 ± 0.061,1.13 ± 0.078,1.062 ± 0.0093,1.14 ± 0.099,1.14 ± 0.12,1.33 ± 0.17
I3L2N2 and related entries (UniProt O14641),1.02 ± 0.028,1 ± 0.03,1.02 ± 0.042,1.02 ± 0.069,1.04 ± 0.071,1 ± 0.052,1.04 ± 0.058,1.03 ± 0.041
J3KTA1 and related entries (UniProt Q96IG2),1.13 ± 0.03,1.08 ± 0.029,0.991 ± 0.076,1.03 ± 0.13,1.01 ± 0.073,1.03 ± 0.024,0.911 ± 0.029,0.863 ± 0.094
I3L397 and related entries (UniProt P63241),0.931 ± 0.11,0.928 ± 0.096,0.831 ± 0.078,0.833 ± 0.034,0.812 ± 0.043,0.832 ± 0.055,0.771 ± 0.087,0.798 ± 0.048
H3BMQ0 and related entries (UniProt P49815),1 ± 0.019,1 ± 0.024,1.03 ± 0.053,1.01 ± 0.062,1.01 ± 0.057,0.983 ± 0.053,1.08 ± 0.066,1.02 ± 0.073
H3BPU4 and related entries (UniProt Q9UGJ1),1.03 ± 0.11,1.07 ± 0.11,1.03 ± 0.11,1.2 ± 0.17,1.25 ± 0.2,1.26 ± 0.19,1.12 ± 0.19,0.968 ± 0.13
K7EP32 and related entries (UniProt Q9BZV1),1.06 ± 0.13,1.07 ± 0.11,1.01 ± 0.14,0.994 ± 0.14,0.951 ± 0.082,0.966 ± 0.083,0.97 ± 0.078,0.913 ± 0.15
H3BNQ7 and related entries (UniProt P80404),1.04 ± 0.034,1.063 ± 0.0064,1 ± 0.047,0.994 ± 0.024,1 ± 0.052,0.954 ± 0.029,0.918 ± 0.044,0.943 ± 0.055
K7ELQ4 and related entries (UniProt P17544+K7ELQ4),0.902 ± 0.047,0.863 ± 0.034,0.897 ± 0.071,0.929 ± 0.11,0.908 ± 0.076,0.93 ± 0.1,0.923 ± 0.058,0.953 ± 0.045
J3KR35 and related entries (UniProt Q8WUD4),0.83 ± 0.13,0.759 ± 0.063,1.02 ± 0.095,1.01 ± 0.02,0.897 ± 0.061,0.944 ± 0.066,0.8 ± 0.16,1.1 ± 0.17
H0Y4T4 and related entries (UniProt Q5SW79),0.981 ± 0.061,0.97 ± 0.069,1.01 ± 0.028,1.02 ± 0.061,1.05 ± 0.072,1.06 ± 0.06,1.12 ± 0.13,1.13 ± 0.12
K7EQ37 and related entries (UniProt Q70J99),1.07 ± 0.037,1.05 ± 0.036,0.991 ± 0.027,1 ± 0.074,0.981 ± 0.069,0.943 ± 0.031,0.933 ± 0.051,0.907 ± 0.094
H0Y3K4 and related entries (UniProt Q96EV2),0.975 ± 0.064,1 ± 0.039,1.01 ± 0.025,0.989 ± 0.083,1.03 ± 0.08,1.03 ± 0.035,1.08 ± 0.06,1.07 ± 0.11
K7EJH0 and related entries (UniProt Q8NBT2),0.946 ± 0.05,0.921 ± 0.036,1.03 ± 0.099,1.01 ± 0.042,0.996 ± 0.067,0.984 ± 0.032,0.988 ± 0.062,1.13 ± 0.13
I3L254 and related entries (UniProt Q01664),0.934 ± 0.12,0.929 ± 0.098,1.06 ± 0.12,0.982 ± 0.045,0.915 ± 0.096,0.927 ± 0.055,0.894 ± 0.023,0.959 ± 0.13
K7ERF1 and related entries (UniProt Q9UBQ5),0.991 ± 0.042,0.998 ± 0.068,1.01 ± 0.091,1.06 ± 0.1,1.16 ± 0.2,1.28 ± 0.18,1.34 ± 0.21,1.53 ± 0.28
J3KQL8 and related entries (UniProt Q9BQE5),0.987 ± 0.019,1.01 ± 0.041,0.984 ± 0.054,0.956 ± 0.058,0.917 ± 0.044,0.982 ± 0.05,0.957 ± 0.045,0.928 ± 0.051
K7EK07 and related entries (UniProt P84243+K7EK07),0.857 ± 0.015,0.815 ± 0.042,0.9735 ± 0.0013,0.966 ± 0.03,1.03 ± 0.022,1.08 ± 0.054,1.06 ± 0.042,1.27 ± 0.059

# Shown as tab-separated lines: entries from further up
Target	NP40-soluble protein abundance (concentration: 0.1mM)	NP40-soluble protein abundance (concentration: 0.5mM)	NP40-soluble protein abundance (concentration: 1mM)	NP40-soluble protein abundance (concentration: 2mM)	NP40-soluble protein abundance (concentration: 4mM)	NP40-soluble protein abundance (concentration: 6mM)	NP40-soluble protein abundance (concentration: 8mM)	NP40-soluble protein abundance (concentration: 10mM)
G5E9W3 and related entries (UniProt Q9UKF6)	1.01 ± 0.029	1.03 ± 0.033	0.999 ± 0.042	1.03 ± 0.012	1.05 ± 0.065	1.08 ± 0.062	1.03 ± 0.023	1.03 ± 0.019
J3KTA1 and related entries (UniProt Q96IG2)	1.13 ± 0.03	1.08 ± 0.029	0.991 ± 0.076	1.03 ± 0.13	1.01 ± 0.073	1.03 ± 0.024	0.911 ± 0.029	0.863 ± 0.094
